Experimental data as given in patent US20120003329A1, “Use of A2B Adenosine Receptor Antagonists for Treating Pulmonary Hypertension” (Gilead Sciences, Inc., priority 2010, published 2012).
For at least one compound, name, drawing or mass did not settle the structure.

System: HPASMs
Assay: Effect of NECA-activated HPAECs on proliferation of HPASMs (cell count)
Assay type: cell-based, human
Settings: NECA-HPAEC supernatant with ambrisentan 30 nM; HPASMs 18 hours
Description: HPASM were grown in smooth muscle growth medium (SMGM-2). HPAECs were grown in endothelium growth medium (EGM-2). Before treatment, cells were seeded in 24-well plates and allowed to grow to ˜80% confluency. Cells were washed and then incubated in serum free basal medium in the absence or presence of adenosine receptor agonists and antagonists. In the proliferation assays, HPASM were incubated in 50% medium collected from HPAEC cells treated with vehicle or NECA.
Cell supernatants were collected from HPAECs treated with vehicle (control medium), NECA (10 μM, NECA medium) or NECA and Compound A (100 nM) for 18 hours. These cell supernatants (diluted 1:1 in […] basal medium) with or without ambrisentan (30 nM) were used to incubate HPASMs for 18 hours. Cells were counted. NECA-HPAEC medium increased cell number of HPASMs at 18 hours compared to control-HPAEC medium.

COC(c1ccccc1)(c1ccccc1)[C@H](Oc1nc(C)cc(C)n1)C(=O)O [ambrisentan, reference compound]
NECA induced proliferation of HPASMs: inhibited
